The source of these data is PMC8593141.

In this assay the target is T1, mouse Kv4.2 channel with GFP fused to the C-terminus (Kv4.2g) (mouse), Q9Z0V2.
T1 chain: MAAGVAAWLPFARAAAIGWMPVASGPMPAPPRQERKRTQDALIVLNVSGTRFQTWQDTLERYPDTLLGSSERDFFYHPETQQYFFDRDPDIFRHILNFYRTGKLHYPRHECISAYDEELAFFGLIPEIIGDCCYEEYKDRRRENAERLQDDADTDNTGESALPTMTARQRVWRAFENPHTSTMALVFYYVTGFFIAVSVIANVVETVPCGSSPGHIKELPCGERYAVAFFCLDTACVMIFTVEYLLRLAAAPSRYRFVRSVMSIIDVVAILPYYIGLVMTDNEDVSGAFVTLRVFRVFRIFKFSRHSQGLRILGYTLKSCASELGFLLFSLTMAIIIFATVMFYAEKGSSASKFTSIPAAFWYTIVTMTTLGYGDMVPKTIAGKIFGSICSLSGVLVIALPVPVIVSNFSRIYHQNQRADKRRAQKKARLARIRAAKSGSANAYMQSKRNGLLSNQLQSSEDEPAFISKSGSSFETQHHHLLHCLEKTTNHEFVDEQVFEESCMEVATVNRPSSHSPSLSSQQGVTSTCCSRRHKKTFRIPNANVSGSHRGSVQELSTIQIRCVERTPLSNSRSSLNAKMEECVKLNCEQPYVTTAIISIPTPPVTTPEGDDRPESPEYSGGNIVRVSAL
Briefly: co-IP; preliminary immunoprecipitation from HEK cells co-transfected with Kv4.2g, HA-KChIP2a and HA-DPP10c (Supplementary Figure 1D); antibody used for the IP not given. As to conditions: remark: other sources report otherwise.

No constants are given. Whether binding was seen depends on the method and setting. In cells and extracts the contact can be indirect. Some binding calls cover weakened binding; strength is not graded here. Where a sequence is shown, tags or fusion partners need not be part of it.

B1: hemagglutinin (HA)-tagged DPP10c (HA-DPP10c), Q6NXK7 1-797 (protein)
chain: MKQEQQPTPGARATQSQPADQELGSNSPPQRNWKGIAIALLVILVVCSLITMSVILLTPDELTNSSETRLSLEELLGKGFGLHNPEPRWINDTVVVYKTNNGHVMKLNTESNASTLLLDNSTFVTFKASRHSLSPDLKYVLLAYDVKQIFHYSFTASYLIYNIHTGEVWELNPPEVEDSVLQYAAWGVQGQQLIYIFENNIYYQPDIKSSSLRLTSSGKEGIIFNGIADWLYEEELLHSHIAHWWSPDGERLAFLMINDSLVPNMIIPRFTGALYPKAKQYPYPKAGQANPSVKLYVVNLYGPTHTLELMPPDIFKSREYYITMVKWVSNTRTVVRWLNRPQNISILTLCESTTGACSRKYEMTSDTWLSKQNEEPVFSRDGSKFFMTVPVKQGGRGEFHHIAMFLVQSKSEQITVRHLTSGNWEVIRILAYDETTQKIYFLSTESSPQGRQLYSASTEGLLNRDCISCNFMKEDCTYFDASFSPMNQHFLLFCEGPKVPVVSLHITDNPSRYFLLENNSVMKETIQKKKLAKRETRILHIDDYELPLQLSFPKDFMEKNQYALLLIMDEEPGGQMVTDKFHVDWDSVLIDTDNVIVARFDGRGSGFQGLKVLQEIHRRIGSVEAKDQVAAVKYLLKQPYIDSKRLSIFGKGYGGYIASMILKSDEKFFKCGAVVAPISDMKLYASAFSERYLGMPSKEESTYQASSVLHNIHGLKEENLLIIHGTADTKVHFQHSAELIKHLIKAGVNYTLQVYPDEGYHISDKSKHHFYSTILRFFSDCLKEEVSVLPQEPEEDE
As to B1, the binding entry is “binds”.
